Experiment [1] addresses T1, RFP-U1-A (Arabidopsis thaliana) (UniProt Q39244).
T1 sequence: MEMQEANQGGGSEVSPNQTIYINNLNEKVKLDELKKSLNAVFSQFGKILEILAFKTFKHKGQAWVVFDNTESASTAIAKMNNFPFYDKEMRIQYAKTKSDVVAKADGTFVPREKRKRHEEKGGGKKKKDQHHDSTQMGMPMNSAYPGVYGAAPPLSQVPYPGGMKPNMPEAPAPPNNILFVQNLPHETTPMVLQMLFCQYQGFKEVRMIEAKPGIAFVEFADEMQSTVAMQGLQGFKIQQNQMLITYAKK
The experiment can be described thus: co-IP; proteins transiently co-expressed in N. benthamiana; RFP-trap beads (Chromotek), 1 h at 4 °C; lysis buffer 50 mM Tris-HCl pH 7.5, 150 mM NaCl, 10% glycerol, 0.5% Triton X-100, 0.5% Nonidet P 40 Substitute; blots with RFP-, HA- and G/YFP-specific antibodies.

Experiment [2] concerns the target T2, GFP-U1-A (Arabidopsis thaliana) (UniProt Q39244).
T2 sequence: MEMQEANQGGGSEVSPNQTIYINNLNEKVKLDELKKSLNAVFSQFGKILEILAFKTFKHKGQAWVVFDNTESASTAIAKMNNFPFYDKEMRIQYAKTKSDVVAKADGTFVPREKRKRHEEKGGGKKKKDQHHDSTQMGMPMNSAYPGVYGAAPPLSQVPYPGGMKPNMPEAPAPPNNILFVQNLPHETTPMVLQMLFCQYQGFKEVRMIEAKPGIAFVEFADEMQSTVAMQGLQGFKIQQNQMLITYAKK
The experiment can be described thus: co-IP; proteins transiently co-expressed in N. benthamiana; immunoprecipitation with a GFP-affinity matrix; blots with GFP- and MYC-specific antibodies.

These are yes or no findings as the source states them, for the method shown. Binding seen in cells or lysates may run through a third protein. Some binding calls cover weakened binding; strength is not graded here. Tags and fused reporters may be left off the sequences shown.

B1: YFP-tagged RBP47B (protein, UniProt Q0WW84 1-435)
chain: MQTTNGSDSTLATSGATPPNQQTPPPPQQWQQQQQQQQQWMAAMQYPPAAAMMMMQQQQMLMYPHQYVPYNQGPYQQHHPQLHQYGSYQQHQHQQHKAIDRGSGDDVKTLWVGDLLHWMDETYLHSCFSHTGEVSSVKVIRNKLTSQSEGYGFVEFLSRAAAEEVLQNYSGSVMPNSDQPFRINWASFSTGEKRAVENGPDLSVFVGDLSPDVTDVLLHETFSDRYPSVKSAKVVIDSNTGRSKGYGFVRFGDENERSRALTEMNGAYCSNRQMRVGIATPKRAIANQQQHSSQAVILAGGHGSNGSMGYGSQSDGESTNATIFVGGIDPDVIDEDLRQPFSQFGEVVSVKIPVGKGCGFVQFADRKSAEDAIESLNGTVIGKNTVRLSWGRSPNKQWRGDSGQQWNGGYSRGHGYNNGGGYANHHDSNNYHGEN
B1: in experiment [1], the binding entry was “binds”.

B2: HA-CPSF73-I (protein, UniProt Q9C952 1-693)
chain: MASSSTSLKRREQPISRDGDQLIVTPLGAGSEVGRSCVYMSFRGKNILFDCGIHPAYSGMAALPYFDEIDPSSIDVLLITHFHIDHAASLPYFLEKTTFNGRVFMTHATKAIYKLLLTDYVKVSKVSVEDMLFDEQDINKSMDKIEVIDFHQTVEVNGIKFWCYTAGHVLGAAMFMVDIAGVRILYTGDYSREEDRHLRAAELPQFSPDICIIESTSGVQLHQSRHIREKRFTDVIHSTVAQGGRVLIPAFALGRAQELLLILDEYWANHPDLHNIPIYYASPLAKKCMAVYQTYILSMNDRIRNQFANSNPFVFKHISPLNSIDDFNDVGPSVVMATPGGLQSGLSRQLFDSWCSDKKNACIIPGYMVEGTLAKTIINEPKEVTLMNGLTAPLNMQVHYISFSAHADYAQTSTFLKELMPPNIILVHGEANEMMRLKQKLLTEFPDGNTKIMTPKNCESVEMYFNSEKLAKTIGRLAEKTPDVGDTVSGILVKKGFTYQIMAPDELHVFSQLSTATVTQRITIPFVGAFGVIKHRLEKIFESVEFSTDEESGLPALKVHERVTVKQESEKHISLQWSSDPISDMVSDSIVALILNISREVPKIVMEEEDAVKSEEENGKKVEKVIYALLVSLFGDVKLGENGKLVIRVDGNVAQLDKESGEVESEHSGLKERVRVAFERIQSAVKPIPLSAS
For B2, in experiment [1], the binding result is recorded as “binds”.

B3: YFP-FY (protein, UniProt Q6NLV4 1-647)
chain: MYAGGDMHRGSQMPQPPMMRQSSASSTNINPDYHHPSGPFDPNVDSFGAKRMRKHTQRRAVDYTSTVVRYIQARTWQRDSRDRTTLQPTPAAAVDMLPTVAYSDNPSTSFAAKFVHASLNKNRCSINRVLWTPSGRRLITGSQSGEFTLWNGQSFNFEMILQAHDQPIRSMVWSHNENYMVSGDDGGTLKYWQNNMNNVKANKTAHKESIRDLSFCKTDLKFCSCSDDTTVKVWDFTKCVDESSLTGHGWDVKSVDWHPTKSLLVSGGKDQLVKLWDTRSGRELCSLHGHKNIVLSVKWNQNGNWLLTASKDQIIKLYDIRTMKELQSFRGHTKDVTSLAWHPCHEEYFVSGSSDGSICHWIVGHENPQIEIPNAHDNSVWDLAWHPIGYLLCSGSNDHTTKFWCRNRPADNPRDVLMQNQGYNEQGFGRQPDNFQPSEASPIPGAFVPGLTRNEGTIPGIGIAMPFDASSQGDHKQPLPGSMALGAPPLPPGPHPSLLGSGQQQGYQQQQQHQGHPQQMLPMPNMPHHQLPPSSHMPLHPHHLPRPMQMPPHGHMPPPSMPMSHQMPGSMGMQGGMNPQMSQSHFMGAPSGVFQGQPNSGGPQMYPQGRGGFNRPQMIPGYNNPFQQQQQPPLPPGPPPNNNQQHQ
For B3, in experiment [1], the binding entry is “binds”.

B4: MYC-tagged CBP20 (protein, UniProt Q9XFD1 1-257)
chain: MASLFKEQAKLSAYRDRRFSGTQEEFDEALRASTTVYIGNVSFYTTEEQLYELFSRAGEIKKIIMGLDKNTKTPCGFCFVLFYSREDTEDAVKYISGTILDDRPIRVDFDWGFQEGRQWGRGRSGGQVRDEYRTDYDPARGGYGKLVQKELEAQRQLVDYGTGSLGAYPQAAPTNYGNGRRGGGNYGQGGQNRHGRGDYHRKRQRDDDRYGRDNSRRNTDHESRRDTDSDMRPEKNPRFRESGDSDDDGEDDRKRRS
As to B4, in experiment [2], the binding entry was “binds”.

Source of the values: paper PMC11489095.
